# Reference: publication PMC7819943, “Rice protein-binding microarrays: a tool to detect cis-acting elements near promoter regions in rice”
# Amino acid sequences for entries named in this document (tags omitted).
# UniProt Q0JBA9, entry or part of it: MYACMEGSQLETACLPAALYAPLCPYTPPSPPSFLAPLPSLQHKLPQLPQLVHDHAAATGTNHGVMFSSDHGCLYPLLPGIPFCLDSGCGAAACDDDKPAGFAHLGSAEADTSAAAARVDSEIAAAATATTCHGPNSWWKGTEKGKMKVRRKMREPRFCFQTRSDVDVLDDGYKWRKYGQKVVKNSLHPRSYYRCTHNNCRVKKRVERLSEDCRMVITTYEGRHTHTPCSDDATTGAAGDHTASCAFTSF
# Some of the results follow.
# Target: OsWRKY34 (Oryza sativa, UniProt Q0JBA9 1-250)
# Test: protein-binding microarray (RPBM); PBS, 2% BSA, 51.3 ng/ul salmon testes DNA, 50 uM zinc acetate, 200 nM TF, 25 C, 1 h; high values mean tight binding
# Conditions: protein: recombinant; tags: N-terminal polyhistidine and DsRed monomer fusion (pET32a); label: CyDye5-dUTP incorporated in the synthesized complementary strand; 3' TTTTT single-stranded linker to array surface; dsDNA, one strand shown
# Outline: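 An Axon 4000B scanner gave the binding signal as per-feature fluorescence intensity in arbitrary units. This followed washing of a custom Agilent array that had been incubated for 1 h at 25 °C with 200 nM protein in PBS, 2% BSA, salmon testes DNA and 50 µM zinc acetate. The proteins were transcription factors fused at the N-terminus to polyhistidine and DsRed, expressed in E. coli BL21-CodonPlus and purified on Ni–NTA.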
row,Sequence,binding signal
1,ACCGAATCCGAATCCCGCGTTTCTTTGTTGCGCGCGCGACCGGAGTCACCTAGTGCAG,10100 fluorescence intensity (a.u.)
2,GCTTTCCTCTTGCTACACTCCTTTTCTCCAAGTCATACACCGGAGTCACCTAGTGCAG,8890 fluorescence intensity (a.u.)
3,GCGCTCACGTACCCGTCCCCGTCGCGGTCGAACACGCGCGCGGAGTCACCTAGTGCAG,8360 fluorescence intensity (a.u.)
4,CGTGACAAAGTCAGTGGCAAATCGTAGACGTGCGACAAAGCGGAGTCACCTAGTGCAG,8790 fluorescence intensity (a.u.)
5,CAGTGTTGTTTTCTTCATCTATTTCCCACCGGCAAATTGCCGGAGTCACCTAGTGCAG,8590 fluorescence intensity (a.u.)
6,GCCGCATGAACCGCCTCGCCTTCACCCGCCACCGCGCGCCCGGAGTCACCTAGTGCAG,10000 fluorescence intensity (a.u.)
7,GGTCATTCCTGTGTTTTTTTTCTGTGTTTTGCAATTATCTCGGAGTCACCTAGTGCAG,14500 fluorescence intensity (a.u.)
8,ACACCTATTAGATATTTTTTAAAATACCTCTACAGTATTGCGGAGTCACCTAGTGCAG,8900 fluorescence intensity (a.u.)
9,ACAACATTTTACTTTTTTTTCATCCTCATGTCCGTAACATCGGAGTCACCTAGTGCAG,8820 fluorescence intensity (a.u.)
10,ATCCATCCAACATGACTCGTTCACCACATTGTGCTTTATTCGGAGTCACCTAGTGCAG,9700 fluorescence intensity (a.u.)
11,ACCCTGTACGTACGCACGCCCATTGTTCGTGACCTCCCCACGGAGTCACCTAGTGCAG,8900 fluorescence intensity (a.u.)
12,GAATCTCAGCCGCGTCATCCACCTCATTGCTCTTATCCGACGGAGTCACCTAGTGCAG,8940 fluorescence intensity (a.u.)
13,ATATGGACTTTATTTTTCTTTTTCTCCGATTAATATGAGACGGAGTCACCTAGTGCAG,9380 fluorescence intensity (a.u.)
14,GTCATCTCATCACCGGCGACCCCGCCGTGACGTGACGTCACGGAGTCACCTAGTGCAG,8430 fluorescence intensity (a.u.)
15,CGGTGTACTTTTTCCCCTTGCGTTTGGTCTATTTTTACTACGGAGTCACCTAGTGCAG,10700 fluorescence intensity (a.u.)
16,CGTCGGCCTCAATCTTCTTCCGCGCGCGCCGCCGCCGGTCCGGAGTCACCTAGTGCAG,8490 fluorescence intensity (a.u.)
17,TCTTTTTATACCCTATAGTAGTCCTAGGCATATACTACCCCGGAGTCACCTAGTGCAG,8060 fluorescence intensity (a.u.)
18,GGTCAACAATATGTCCCTCGGTGGTTTTGATCCTGGTTCTCGGAGTCACCTAGTGCAG,9930 fluorescence intensity (a.u.)
19,AACGGTTTCGCTACCAACAACGGCTCGTGTTCTTCTGAAGCGGAGTCACCTAGTGCAG,8530 fluorescence intensity (a.u.)
20,TGTCCTGTGTCACATATAATGGCGTTTCAGCTGTAATCTACGGAGTCACCTAGTGCAG,9210 fluorescence intensity (a.u.)
21,CAATCATAACCTTAACCTTTCTCAACCTTTATGCTCTTTACGGAGTCACCTAGTGCAG,8300 fluorescence intensity (a.u.)

row,Sequence,binding signal
1,TGACTTTTATATATAGCTTTCGTGTGAACTAATTACTTCACGGAGTCACCTAGTGCAG,9740 fluorescence intensity (a.u.)
2,TTACTGCTAGCTTCATTTATTTTGGACGGGGTTAGTACATCGGAGTCACCTAGTGCAG,13300 fluorescence intensity (a.u.)
3,CACCCGAGCCGCATCGCCCATCCACCCACGCCACATCGCTCGGAGTCACCTAGTGCAG,10000 fluorescence intensity (a.u.)
4,ACCCCGATGACCAGTCTACTGCTCTCCACATACTAGCAGCCGGAGTCACCTAGTGCAG,8110 fluorescence intensity (a.u.)
5,ACCAACCCCATCGCTCCCTCGACCATCGCCGCAATCCCTTCGGAGTCACCTAGTGCAG,11800 fluorescence intensity (a.u.)
6,AACTCACCGCTTATCTACTCTCTCACGCTGTCATCTAAACCGGAGTCACCTAGTGCAG,12900 fluorescence intensity (a.u.)
7,ACTCCTCCGCTCGCTTTGCGCCATCGCCGCCACCGACGCCCGGAGTCACCTAGTGCAG,10200 fluorescence intensity (a.u.)
8,TCTACGTGTCTCTTAGCATTCTTTTTTCCTTATAAATACTCGGAGTCACCTAGTGCAG,8490 fluorescence intensity (a.u.)
9,TCCACTCCACAGTCCACACCACACGACGCCCCAAACCCTCCGGAGTCACCTAGTGCAG,8710 fluorescence intensity (a.u.)
10,GGGGTGGAGTTTGATCTCTTGCAAGACAGATTTGCTACGACGGAGTCACCTAGTGCAG,10800 fluorescence intensity (a.u.)
11,CCGTTCTTCCCTCTCTCTCTCTCTTTCTCTCTACATATGACGGAGTCACCTAGTGCAG,10400 fluorescence intensity (a.u.)
12,ATTCAGCACATTTGTTTGACAGGAGCCGTGTCTCGAATAACGGAGTCACCTAGTGCAG,8730 fluorescence intensity (a.u.)
13,ATGAGCCCATCCGTCACTGCCACGGTTCCATCAACATCTACGGAGTCACCTAGTGCAG,8560 fluorescence intensity (a.u.)
14,CCTCGTCGGCGCCGCCGTGTTGCTGCTGCCCGCGGCGCGCCGGAGTCACCTAGTGCAG,8970 fluorescence intensity (a.u.)
15,CACTTCACACACGCTCCTTCTGTAGTTCATTGGCTTGCTTCGGAGTCACCTAGTGCAG,8480 fluorescence intensity (a.u.)
16,ATGCGTTGTGCAGATGCAGAGGTGTTTGTTGTTGTCGTGGCGGAGTCACCTAGTGCAG,9290 fluorescence intensity (a.u.)
17,CGAGTCGAGCTTTTCTTTCTTTGGTTGGTTGGTTGGTGTTCGGAGTCACCTAGTGCAG,19600 fluorescence intensity (a.u.)
18,GCTTTTAGAAACCGGTATCTTCAAGAAATCCACGTTTGACCGGAGTCACCTAGTGCAG,9400 fluorescence intensity (a.u.)
19,TGGATGCTAGTTTAGTTTTTTTTTATGTTGTCACGTCGAACGGAGTCACCTAGTGCAG,10500 fluorescence intensity (a.u.)
20,TTGGATTGGTTACTATGTTTGCATTTACACTATTTATTATCGGAGTCACCTAGTGCAG,10300 fluorescence intensity (a.u.)
21,AAAATCTCCTACTAGCTCACTTCACAATGGATCAAACAAACGGAGTCACCTAGTGCAG,8230 fluorescence intensity (a.u.)

row,Sequence,binding signal
1,TGTACGTGACCAGTAACGCGTTGACCTTTTCTTTGTTGAACGGAGTCACCTAGTGCAG,17000 fluorescence intensity (a.u.)
2,ACTTGGCCCCACCTGGCAGCCTCTCCAGCTCGCCCTTCTTCGGAGTCACCTAGTGCAG,9000 fluorescence intensity (a.u.)
3,TTCTGCTACCTATTCTTTTCGCAGTGCTGCACATTAAATTCGGAGTCACCTAGTGCAG,9370 fluorescence intensity (a.u.)
4,TCTCAGTGCCGGTGTGGGATCGTGGTTGTGTGTGTGATTGCGGAGTCACCTAGTGCAG,9020 fluorescence intensity (a.u.)
5,GTTTATTTTTCAGTCTTTGCTTTTAGATCGTTAAAAATATCGGAGTCACCTAGTGCAG,8970 fluorescence intensity (a.u.)
6,TTAGACCGGTTCATGTAACTGTAACTACGCTGACTTATTGCGGAGTCACCTAGTGCAG,9250 fluorescence intensity (a.u.)
7,AGCCAAGTGCTCACCTGTTCGCATGCCCATTGCTGCTGCGCGGAGTCACCTAGTGCAG,11300 fluorescence intensity (a.u.)
8,AATGCTTTGAGACCACTCCCTCTCTCTTTTTCTCTCTCACCGGAGTCACCTAGTGCAG,8110 fluorescence intensity (a.u.)
9,CTATTGACCTTGCTCTCAAGCGCCACATGCTTCTGCTCACCGGAGTCACCTAGTGCAG,8750 fluorescence intensity (a.u.)
10,CACCTAGGAGTAGTAGTTTGGGTTTGGGTTCCTCTCTCGTCGGAGTCACCTAGTGCAG,8520 fluorescence intensity (a.u.)
11,CCCAATCTCTCCCATTTCCATTTCCATTTCCATTTCCTCCCGGAGTCACCTAGTGCAG,11100 fluorescence intensity (a.u.)
12,TCTCGCGCCGCCCTCGCTCTTCGCCGTTTCGCCGCTGGCCCGGAGTCACCTAGTGCAG,8950 fluorescence intensity (a.u.)
13,TTCTGCGCACTCTGCACCGCTGATTTTGTTTGTTGATTCTCGGAGTCACCTAGTGCAG,9760 fluorescence intensity (a.u.)
14,CCTGAACTCTCATTTTGGGGATGCTGGGAGAAGTTTGGGTCGGAGTCACCTAGTGCAG,10600 fluorescence intensity (a.u.)
15,GGAGGCTTGTGCTGCTTCGTCTTTTCCCGCCGCCGCGCACCGGAGTCACCTAGTGCAG,9680 fluorescence intensity (a.u.)
16,TTCATCCCCTAACCCTTTCTTTGTTCATCTTGTTCTTCCTCGGAGTCACCTAGTGCAG,9970 fluorescence intensity (a.u.)
17,GCACACCCTAATTTGCTTTACCTAGGCCGTGTTTAGTTCCCGGAGTCACCTAGTGCAG,9110 fluorescence intensity (a.u.)
18,CATTTCGTTCACACAGTAGGTTCTTTGAGACTAGATATCTCGGAGTCACCTAGTGCAG,8170 fluorescence intensity (a.u.)
19,AGCGCACAAACCCACACACAGATTATTAACATCATGCTGTCGGAGTCACCTAGTGCAG,10200 fluorescence intensity (a.u.)
20,GACACTAGGACAGTACGTAGCTACCTCTCCACTGCTCTGCCGGAGTCACCTAGTGCAG,8730 fluorescence intensity (a.u.)
21,TCTCTTTCTCTCTCTCACTTTAGTGCTAGAATGGCAAAACCGGAGTCACCTAGTGCAG,11600 fluorescence intensity (a.u.)

row,Sequence,binding signal
1,AGGAAATGTCTCATCAAATACTAGATTGGTTTTTTTTTACCGGAGTCACCTAGTGCAG,8960 fluorescence intensity (a.u.)
2,GTTGATTTGTGTTTTGACTTTTGAAAAGACTACTGTTACTCGGAGTCACCTAGTGCAG,8210 fluorescence intensity (a.u.)
3,ATCTCGATCCCCGCCGCGCCGCCGTTCCTCCACGCCGCCGCGGAGTCACCTAGTGCAG,8860 fluorescence intensity (a.u.)
4,TGTGAGTGAGTTTTGTTTCGTTTTCCGCGCGCACGTTTTCCGGAGTCACCTAGTGCAG,11200 fluorescence intensity (a.u.)
5,TTATATCCTGTTTTGTGGTTTAAGGATGTCATTTGACCAACGGAGTCACCTAGTGCAG,8420 fluorescence intensity (a.u.)
6,TGAGGGAGGGTTTTTCTTGTAAATATTATACGTACGTTTACGGAGTCACCTAGTGCAG,13600 fluorescence intensity (a.u.)
7,ACACACGCCAGCTCTCACGTACTTTGCGTGTTCACCCCAGCGGAGTCACCTAGTGCAG,9270 fluorescence intensity (a.u.)
8,AGGTTTCAGACGTTATTTTGCCTTTGTACACTCTTACTGCCGGAGTCACCTAGTGCAG,8192 fluorescence intensity (a.u.)
9,TCTGTTCCAAAGGAGGTCTTGTTGTTTGGCTGTGTTTCTTCGGAGTCACCTAGTGCAG,9770 fluorescence intensity (a.u.)
10,CAATCATTATTTACTTTATTTTCTCCCAATACAATTTATTCGGAGTCACCTAGTGCAG,8680 fluorescence intensity (a.u.)
11,CCCTTTCCTCAACGCATGAATTCCCCTTGTTCACGGTGAACGGAGTCACCTAGTGCAG,8400 fluorescence intensity (a.u.)
12,CCGGGTCACACATCCCCTCATACTCGGGCCTTGTTTAGTTCGGAGTCACCTAGTGCAG,8740 fluorescence intensity (a.u.)
13,ATCATTTAGTTGACATACTCACTCTGTTTCAGGCTACAAGCGGAGTCACCTAGTGCAG,8100 fluorescence intensity (a.u.)
14,ATCCGTGTATTATAGCGTTTCGTAGTAGTATTTTTATGTCCGGAGTCACCTAGTGCAG,9280 fluorescence intensity (a.u.)
15,ATCTCTCTATCTCCCTCTGATGTTCTGTCTCTCTCTCTCTCGGAGTCACCTAGTGCAG,8860 fluorescence intensity (a.u.)
16,GACCTCGCTTCCCCGCCGGCCGCCATGAAATTGGAGCTTCCGGAGTCACCTAGTGCAG,9870 fluorescence intensity (a.u.)
17,CTCGCACCTCCTACCTCTCCAGTGTGAGTCTCCACCTACCCGGAGTCACCTAGTGCAG,8950 fluorescence intensity (a.u.)
18,ACTGAGATCCCTTGCAGTACTGCAATAGTACCACACAAATCGGAGTCACCTAGTGCAG,8110 fluorescence intensity (a.u.)
19,TCACTCATTCACTCTCCACGCTTTCACTTCACTCGCCCACCGGAGTCACCTAGTGCAG,9040 fluorescence intensity (a.u.)
20,TCTCCTACTTCTTGCCTGCCTCGCACCTCACTCTTCTTCCCGGAGTCACCTAGTGCAG,10400 fluorescence intensity (a.u.)
21,CACCAGCATCCTCGCACGGTCGCGACCCCTCCCGCACCTCCGGAGTCACCTAGTGCAG,8200 fluorescence intensity (a.u.)

# Four entries picked at random from the list so far, as already listed:
row,Sequence,binding signal
1,AGGAAATGTCTCATCAAATACTAGATTGGTTTTTTTTTACCGGAGTCACCTAGTGCAG,8960 fluorescence intensity (a.u.)
7,ACACACGCCAGCTCTCACGTACTTTGCGTGTTCACCCCAGCGGAGTCACCTAGTGCAG,9270 fluorescence intensity (a.u.)
6,TGAGGGAGGGTTTTTCTTGTAAATATTATACGTACGTTTACGGAGTCACCTAGTGCAG,13600 fluorescence intensity (a.u.)
13,ATCATTTAGTTGACATACTCACTCTGTTTCAGGCTACAAGCGGAGTCACCTAGTGCAG,8100 fluorescence intensity (a.u.)
